Results: patent publication US7402606B2, “Derivatives of 1-(oxoaminoacetyl) pentylcarbamate as cathepsin K inhibitors for the treatment of bone loss” (SmithKline Beecham Corporation, priority 2002, dated 2008)
For part of its entries the source gives two or more results. Only these are listed. The source may hold further records. Results that share an entry differ for a reason that is not stated; dose, time, organism, isomer or construct need not be as stated for each record.

The chains behind the UniProt entries cited, without tags or fusion partners. Residues count along the entry.
UniProt P43235, 115-329 limits assumed: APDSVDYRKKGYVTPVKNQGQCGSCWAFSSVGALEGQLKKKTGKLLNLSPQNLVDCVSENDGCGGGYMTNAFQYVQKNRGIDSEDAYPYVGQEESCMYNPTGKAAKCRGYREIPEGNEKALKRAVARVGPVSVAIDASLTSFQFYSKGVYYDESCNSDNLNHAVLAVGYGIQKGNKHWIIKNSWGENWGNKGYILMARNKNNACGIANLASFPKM

Molecular target: human cathepsin K (Homo sapiens, UniProt P43235)
Assay: Cathepsin K inhibition assay, human recombinant enzyme, fluorogenic substrate Cbz-Phe-Arg-AMC
Details: read-out: h Cat K IC50

## CCCC[C@H](NC(=O)OC1C(=O)NCC1(C)C)C(=O)C(=O)N[C@H](C)c1ccccc1 (single isomer, unassigned)
  IC50: 1 nM to 10 nM and 10 nM to 100 nM
